Reference: PubChem BioAssay AID652248 (Drosophila RNAi Screening Center, 2013)

- Purpose: 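Kinase and phosphatase regulators of cell lengthening and shape variety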 (primary screen)
- System: cultured Drosophila hemocytes
- Knock-down reagent: long dsRNA against Drosophila genes
- Measurement: 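Automated microscopy of stained actin, tubulin and nuclei; single-cell shape measures assigned to five reference shape types, giving a score per dsRNA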
- Scale: elongated score: higher = more elongated bipolar cells
- Hit rule: 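Hits show a significant increase of elongated cells; higher rank given where elongated cells rose as other shape types fell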
The whole screen tested 863 reagents; shown is a random part of them. 32 of them (3.7%) were called active. 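Calls also used reproducibility and a similarity ranking whose scores are not deposited; many active genes show only modest elongated scores.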 Further read-outs or replicates are left out here. Not given: the amount of reagent, the time to read-out.

What is on record for msn (GeneID 44030) [DRSC07990]?
elongated score, rep 1: 0.91; activity call: inactive

With msn (GeneID 44030) [DRSC08498], what does the deposit list?
elongated score, rep 1: -0.53; activity call: inactive

What did the screen give for msn (GeneID 44030) [DRSC25188]?
elongated score, rep 1: -0.16; activity call: inactive

Which result is listed for CanA1 (GeneID 43670) [DRSC16600]?
elongated score, rep 1: -0.06; activity call: inactive

What did the screen give for CanA1 (GeneID 43670) [DRSC25868]?
elongated score, rep 1: 3.64; activity call: inactive

Which result is listed for PhKgamma (GeneID 32120) [DRSC20268]?
elongated score, rep 1: -0.53; activity call: inactive

For PhKgamma (GeneID 32120) [DRSC27226], what does the deposit list?
elongated score, rep 1: 0.28; activity call: inactive

What is on record for S6KL (GeneID 45970) [DRSC19349]?
elongated score, rep 1: 2.15; activity call: inactive

What did the screen give for S6KL (GeneID 45970) [DRSC23147]?
elongated score, rep 1: -0.53; activity call: inactive

For Madm (GeneID 40710) [DRSC12129], what does the deposit list?
elongated score, rep 1: -0.37; activity call: inactive

For Madm (GeneID 40710) [DRSC25999], what was measured?
elongated score, rep 1: -0.1; activity call: inactive

What is on record for pyd (GeneID 41062) [DRSC14387]?
elongated score, rep 1: -0.03; activity call: inactive

With pyd (GeneID 41062) [DRSC14445], what was measured?
elongated score, rep 1: -0.53; activity call: inactive

For pyd (GeneID 41062) [DRSC14509], how do the results read?
elongated score, rep 1: -0.53; activity call: inactive

What did the screen give for pyd (GeneID 41062) [DRSC16547]?
elongated score, rep 1: 0.38; activity call: inactive

How did the screen score pyd (GeneID 41062) [DRSC17041]?
elongated score, rep 1: 0.12; activity call: inactive

With pyd (GeneID 41062) [DRSC26890], how do the results read?
elongated score, rep 1: -0.53; activity call: inactive

Which result is listed for Adk3 (GeneID 44750) [DRSC05917]?
elongated score, rep 1: -0.03; activity call: inactive

How did the screen score Adk3 (GeneID 44750) [DRSC28006]?
elongated score, rep 1: -0.53; activity call: inactive

For CG8509 (GeneID 32535) [DRSC20109], how do the results read?
elongated score, rep 1: 0.78; activity call: inactive

Which result is listed for htl (GeneID 42160) [DRSC16968]?
elongated score, rep 1: -0.13; activity call: inactive

A few values from above.
Entry of S6KL (GeneID 45970) [DRSC23147] in “elongated score, rep 1”: -0.53
Value of msn (GeneID 44030) [DRSC07990] under “activity call”: inactive
Entry for CanA1 (GeneID 43670) [DRSC16600] in “elongated score, rep 1”: -0.06

The listing continues.
Which result is listed for RIOK1 (GeneID 39309) [DRSC09853]?
elongated score, rep 1: 0.65; activity call: inactive

How did the screen score Cerk (GeneID 40640) [DRSC12285]?
elongated score, rep 1: -0.03; activity call: inactive

How did the screen score Nipped-A (GeneID 35483) [DRSC04882]?
elongated score, rep 1: 1.24; elongated score, rep 2: 0.53; activity call: inactive

With Nipped-A (GeneID 35483) [DRSC04883], what does the deposit list?
elongated score, rep 1: -0.53; activity call: inactive

With Nipped-A (GeneID 35483) [DRSC04884], what does the deposit list?
elongated score, rep 1: -0.53; activity call: inactive

How did the screen score Nipped-A (GeneID 35483) [DRSC22386]?
elongated score, rep 1: 0.94; activity call: inactive

What is on record for CG32812 (GeneID 31074) [DRSC18478]?
elongated score, rep 1: 2.17; activity call: inactive

What did the screen give for Pp2C1 (GeneID 31404) [DRSC23287]?
elongated score, rep 1: -0.08; activity call: inactive

With Pp2C1 (GeneID 31404) [DRSC28091], what was measured?
elongated score, rep 1: 0.04; activity call: inactive

With Alg-2 (GeneID 3355106) [DRSC07799], what does the deposit list?
elongated score, rep 1: -0.53; activity call: inactive

For Ak1 (GeneID 39396) [DRSC10248], what was measured?
elongated score, rep 1: -0.53; activity call: inactive

Which result is listed for Ak1 (GeneID 39396) [DRSC29837]?
elongated score, rep 1: 1.54; activity call: inactive

With Cdk7 (GeneID 31441) [DRSC18451], what was measured?
elongated score, rep 1: -0.41; activity call: inactive

With Cdk7 (GeneID 31441) [DRSC23327], how do the results read?
elongated score, rep 1: 0.17; activity call: inactive
